{
  "source": "paper PMC7474061",
  "binders": {"B1": {"name": "PadR-family transcriptional regulator (Msmeg_6227) (protein, UniProt A0R5K8 1-246)", "chain": "MSTPFAFPTGDFGFGPAGRRAMLHHRRAARREFRDQMRAHLHEAREQALDPRCEMGGPGGPGPMGGPGRGFGGFGFGFDPGAGFGFGPGGPRGRRGHGRGRRGRRGDVRAAILKLLAERPMHGYEMIQEIGERTDNLWRPSPGSVYPTLQLLVDEGLISGTEAEGSKKLFELTEAGRAAAEAIETPPWEQIAEDVDPAAVNLRGAIAQLMGAVAQSAYTATEDQQQRILDVVNNARREIYQILGEE"}, "B2": {"name": "thioredoxin disulfide reductase (Msmeg_1516) (protein, UniProt A0QSL0 1-552)", "chain": "MILSVDDDPAVSRAVARDLRRHYGERYRIVRAESGPDALETLHELKLRGDTVAVFVADYRMPQMSGIEFLESAMDLYPMARRVLLTAYADTNAAIAAINVVDLDHYLLKPWDPPEEKLYPVIDGLLEAWHAAGDRAIPYTKVIGHQWSPRSWEVRQFLARNQHTYRAFNADEPKGRQLLEAAGLDGMQLPVVITEGGTTLVEPTDAELADMLGLSTAPSLTMYDLAVIGGGPAGLAAAVYGASEGLKTVLIEGTTTGGQASRSSRIENYLGFPTGISGAELATSARRQAERFGAEVITTREAVKLEVAGSARTITFADGDTIGARAVILATGVDYRQLPVPGCWDDPDNPVNFIGRGVYYGASVSDAAECCDEDVYIVGGANSAGQAAMFMARTARSVTLLVRGPSLEASMSYYLIQQIEDTPNIHVRTCTEVVKAIGEDDHLVGLVLENKRTGEQEEVRSSRLCCFIGATPRTEWLDGVVARDEHGFILAGPDLRDVCGWTLERPPHHLETSVPGVFVAGDVRAESAKRVAAAVGEGSMAVMFVHRYLAES"}, "B3": {"name": "Msmeg_1285 (protein, UniProt A0QRY7 1-801)", "chain": "MATVTDAVARILAEQGPLHTDEIERLLQASGEPVPEPVVDELSMPVGMLVDDRWVWLPTVLDGRVFTHRLSAHEVAHDMLDAAVDLDPVSDLFHLDEYLRLADGSPVSFAVADYDDELLEDRGIPLELAGESGVVLLAPGTLAALKAAEGDLVGLRLTDQGLALETIETVVDADIGNRLAEVLPGDEPTFVDAAALTLCAEDPTVFVEATAPLSEVIREAGLAYSDGFIAPAGFDFGRWRFETACHRSADTHGLDPDDAVALQTLIMALEQLTVDADSLPLLRRAGAALENPVVADALVEETVDAGRGSPESLSRLTEALEAQVPRPARAAVRWLRATALERAGDIAAAERELLAAETMDTEWPLTLVDLAHIASDRGDAERALALLRRAGFPPDHPNVQFLQRYLVAPRPDLGRNEPCWCGSGRKYKKCHLGNEQLSLEERAAWLYSKAAQHVSETHWHGMLLELALERSRYADDLHDAIAEAMSDPLVMDALLHEGDAFADFLRVRGPLLPDDERALAEQWLLVDRSVFEVQAVRPGETVTVRDVRTGDRHEVRERLASREVKPGELLCARVLPTGSIMQFFGGIERVSLGERDELIELLDSRPDEVTLVAALTRRFAPPTLTNTEGDLLMVCEAAVRFADPAALDAVYVRADDDPPHWFEHVPGKPQIRASLKLDGDTLRVETNSEERMDRVLAELGRLDPAMTVLEESRRPISEVTPPSRELLEPDDPEMIAAMEEFMRDYETRWLDESIPALNGLTPRQAADDPTRRGDLIKLLDSFPATERGMNADRLRAALGLD"}},
  "key": {"[1]": {"molecular_target": "Wildcat gp11-HA (mycobacteriophage Wildcat)", "experiment": "affinity purification with mass spectrometry; Wildcat gp11-HA expressed in M. smegmatis; anti-HA magnetic beads; not eluted after the washes, digested directly on the beads and analysed by tandem mass spectrometry; control: gp11 without the HA tag"}, "[2]": {"molecular_target": "LHTSCC gp46-HA (mycobacteriophage LHTSCC)", "experiment": "affinity purification with mass spectrometry; HA-tagged phage protein expressed in M. smegmatis (induced 4 to 7 h); lysate in 50 mM Tris-HCl, 1 mM EDTA, 0.5% Triton X-100, 1 mM PMSF; anti-HA agarose or magnetic beads; washed with lysis buffer and TBS; eluted with 2X non-reducing sample buffer; 4-20% SDS-PAGE; excised bands or whole eluate identified by mass spectrometry; control: the same phage protein without the HA tag"}, "[3]": {"molecular_target": "Wildcat gp145-HA (mycobacteriophage Wildcat)", "experiment": "affinity purification with mass spectrometry; HA-tagged phage protein expressed in M. smegmatis (induced 4 to 7 h); lysate in 50 mM Tris-HCl, 1 mM EDTA, 0.5% Triton X-100, 1 mM PMSF; anti-HA agarose or magnetic beads; washed with lysis buffer and TBS; eluted with 2X non-reducing sample buffer; 4-20% SDS-PAGE; excised bands or whole eluate identified by mass spectrometry; control: the same phage protein without the HA tag"}, "[4]": {"molecular_target": "Wildcat gp13-HA (mycobacteriophage Wildcat)", "experiment": "affinity purification with mass spectrometry; HA-tagged phage protein expressed in M. smegmatis (induced 4 to 7 h); lysate in 50 mM Tris-HCl, 1 mM EDTA, 0.5% Triton X-100, 1 mM PMSF; anti-HA agarose or magnetic beads; washed with lysis buffer and TBS; eluted with 2X non-reducing sample buffer; 4-20% SDS-PAGE; excised bands or whole eluate identified by mass spectrometry; control: the same phage protein without the HA tag"}},
  "note": "No constants are given. Whether binding was seen depends on the method and setting. In cells and extracts the contact can be indirect. A yes stands for co-enrichment or nearness to the bait. Other partners may have been found.",
  "data": [
    {"binder": "B1", "values": [
      {"measurement": "binding", "setting": "[1]", "result": "binds"},
      {"measurement": "binding", "setting": "[2]", "result": "binds"}
    ]},
    {"binder": "B2", "values": [
      {"measurement": "binding", "setting": "[3]", "result": "binds"}
    ]},
    {"binder": "B3", "values": [
      {"measurement": "binding", "setting": "[4]", "result": "binds"}
    ]}
  ]
}
